No constants are given. Whether binding was seen depends on the method and setting. Some entries that bind do so weakly or less than the wild type.
Tests used:
[1] = target: UL34^(174–194) peptide, unlabelled (herpes simplex virus 1 (HSV-1)) (UniProt P10218); assay: cross-linking; SM(PEG)6 at 50-fold molar excess, 30 min at room temperature in PBS, with 1 mM POPC/POPS/POPA 3:1:1 SUVs; 50 μM peptide, or 25 μM each in mixtures; 16% Tris-tricine SDS-PAGE, Coomassie; both purified
[2] = target: UL34^(174–194) peptide, unlabelled (herpes simplex virus 1 (HSV-1)) (UniProt P10218); assay: cross-linking; SM(PEG)6 at 50-fold molar excess, 30 min at room temperature in PBS, without SUVs; 50 μM peptide, or 25 μM each in mixtures; 16% Tris-tricine SDS-PAGE, Coomassie; both purified
[3] = target: GST-tagged HSV-1 UL34 residues 1 to 220 (as in NEC220) (herpes simplex virus 1 (HSV-1)) (UniProt P10218); assay: co-purification (Ni-NTA Sepharose, then glutathione Sepharose, then cation exchange); UL31 and UL34 co-expressed in E. coli; lysate in 50 mM HEPES pH 7.5, 500 mM NaCl, 0.5 mM TCEP, 10% glycerol; 4°C
[4] = target: UL34^(174–194) peptide, unlabelled (herpes simplex virus 1 (HSV-1)) (UniProt P10218); assay: condition: only in the absence of SUVs (25 μM each peptide); cross-linking; SM(PEG)6 at 50-fold molar excess, 30 min at room temperature in PBS, without SUVs; 50 μM peptide, or 25 μM each in mixtures; 16% Tris-tricine SDS-PAGE, Coomassie; both purified
[5] = target: UL31^(41–50) peptide (herpes simplex virus 1 (HSV-1)); assay: cross-linking; SM(PEG)6 at 50-fold molar excess, 30 min at room temperature in PBS, with 1 mM POPC/POPS/POPA 3:1:1 SUVs; 50 μM peptide, or 25 μM each in mixtures; 16% Tris-tricine SDS-PAGE, Coomassie; both purified
[6] = target: UL31^(41–50) peptide (herpes simplex virus 1 (HSV-1)); assay: cross-linking; SM(PEG)6 at 50-fold molar excess, 30 min at room temperature in PBS, without SUVs; 50 μM peptide, or 25 μM each in mixtures; 16% Tris-tricine SDS-PAGE, Coomassie; both purified

Protein sequences, listed by entry. Tags and fused reporters are not part of them. Lines headed by an entry give the natural chain unless they say otherwise; changes in a name come on top. Chains listed by the source or under a name are the forms on record and can include a tag or linker. Residues count along the entry.
GST-tagged HSV-1 UL34 residues 1 to 220 (as in NEC220) (herpes simplex virus 1 (HSV-1)) (P10218, residues 1-220): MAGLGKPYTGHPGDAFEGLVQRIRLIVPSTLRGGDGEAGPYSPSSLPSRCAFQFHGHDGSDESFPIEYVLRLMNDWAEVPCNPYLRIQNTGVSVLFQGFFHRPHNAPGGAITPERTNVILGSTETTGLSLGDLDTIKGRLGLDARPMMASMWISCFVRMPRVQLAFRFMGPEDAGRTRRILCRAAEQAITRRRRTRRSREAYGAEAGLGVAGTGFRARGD
UL34^(174–194) peptide, unlabelled (herpes simplex virus 1 (HSV-1)) (P10218, residues 174-194): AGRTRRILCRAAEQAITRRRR
UniProt P10215: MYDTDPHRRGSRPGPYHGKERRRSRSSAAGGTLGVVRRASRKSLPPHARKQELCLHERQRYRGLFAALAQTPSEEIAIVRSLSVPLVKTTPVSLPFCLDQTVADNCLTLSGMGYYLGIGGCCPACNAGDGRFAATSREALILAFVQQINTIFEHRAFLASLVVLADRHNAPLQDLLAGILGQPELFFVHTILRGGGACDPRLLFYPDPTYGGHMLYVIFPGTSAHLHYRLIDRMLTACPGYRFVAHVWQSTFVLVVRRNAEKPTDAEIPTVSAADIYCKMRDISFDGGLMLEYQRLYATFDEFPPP

Molecule: UL34^(174–194) peptide, unlabelled (from UniProt P10218 174-194)
- binding [1]: no binding (tested: 50 μM peptide)
- binding [2]: no binding (tested: 50 μM peptide)

Molecule: His6-SUMO-UL31 (HSV-1 UL31, full length, as in NEC220) (from UniProt P10215 1-306)
- binding [3]: binds

Molecule: UL31^(22–42) peptide (from UniProt P10215 22-42)
- binding [4]: no binding

Molecule: RKSLPPHARK (N-terminally acetylated; C-terminally amidated) [UL31^(41–50) peptide]
- binding [4]: no binding
- binding [5]: no binding (tested: 50 μM peptide)
- binding [6]: no binding (tested: 50 μM peptide)
